Measured values as given in US20250180543A1, “COMPOSITIONS AND METHODS OF A HIGH-THROUGHPUT SCREEN TO IDENTIFY COMPOUNDS THAT ALTER MACROPHAGE-MEDIATED CYTOTOXICITY OF TARGET CELLS” (Whitehead Institute for Biomedical Research, priority 2022, published 2025).
For at least one compound, name, drawing or mass did not settle the structure.

Assays:
[1] = test system: GFP+ NCI-H358 cells; experiment: Long-term co-culture assay, primary human macrophages + GFP+ NCI-H358 cells; assay type: cell-based; settings: inhibitor 1 uM or anti-CD47 10 ug/mL
Procedure: (§1) Long-term co-culture of primary human macrophages was performed using GFP+ target cells. Cells were cultured in IMDM supplemented with 10% ultra-low IgG fetal bovine serum, 100 units/mL penicillin, 100 ug/mL streptomycin, and 292 ug/mL L-glutamine and 20 ng/mL human M-CSF. Purified anti-CD47 antibody clone B6H12 was added at a working concentration of 10 ug/mL. Targeted therapies were added at a final working concentration of 1.0 uM except as otherwise indicated. Cells were then co-cultured for 7-14 days with whole-well imaging of phase contrast and GFP channels performed every 4 hours using an Incucyte S3 system. Automated imaging analysis was performed using Incucyte Analysis Software. Images taken on day 6.5 was used as a standard reference time point for data comparison and statistical analysis. For dose-response experiments, sigmoidal dose-response curves were generated using Prism version 9.2.0 (GraphPad) to determine IC50 parameters.
(§2) Long-term co-culture assays were performed by measuring GFP+ area. Data was analyzed by comparing mean GFP+ area between relevant conditions using one-way ANOVA with Holm-Sidak multiple comparison test. Experiments were performed in two independent trials using a minimum of 6-8 donors except as otherwise indicated. IC50 values were calculated by fitting data to sigmoidal dose-response curve using Prism version 9.2.0 (Graphpad).

[2] = test system: GFP+ NCI-H3122 cells; experiment: Long-term co-culture assay, primary human macrophages + GFP+ NCI-H3122 cells; assay type: cell-based; settings: TKI 1 uM or anti-CD47 10 ug/mL
Procedure: We therefore examined GFP+ NCI-H3122 cells, which contain an oncogenic EML4-ALK fusion.
as §1, with “Cells were cultured in IMDM supplemented with 10% ultra-low IgG fetal bovine serum, 100 units/mL penicillin, 100 ug/mL streptomycin, and 292 ug/mL L-glutamine and 20 ng/mL human M-CSF.” left out
as §2

| Compound | growth of NCI-H358 cells, single agent [1] | growth of GFP+ NCI-H3122 cells, single agent [2] |
| --- | --- | --- |
| C=CC(=O)N1CCN(c2nc(=O)n(-c3c(C)ccnc3C(C)C)c3nc(-c4c(O)cccc4F)c(F)cc23)[C@@H](C)C1 [sotorasib] | inhibited cancer cell growth over time, but generally had only moderate effects as single agents | – |
| C[C@H]1Oc2cc(cnc2N)-c2c(nn(C)c2C#N)CN(C)C(=O)c2ccc(F)cc21 [lorlatinib] | – | impaired the growth of the cancer cells as single agents, but a substantial number of persister cells remained in culture |
